Laboratory results published in paper PMC12282144 (Journal of Virology, 2025).
Results are given in words; binding and its absence hold for the method and conditions named. For some of these results: Binding seen in cells or lysates may run through a third protein. Some binding calls cover weakened binding; strength is not graded here. For some of these results: Sequences can lack the tags named with a protein.

By UniProt entry, the sequences of proteins in these tests, tags left out. Chains listed by the source or under a name are the forms on record and can include a tag or linker. Residues count along the entry.
Flag-tagged ERA G (plasmid-transfected) (P03524, residues 20-524): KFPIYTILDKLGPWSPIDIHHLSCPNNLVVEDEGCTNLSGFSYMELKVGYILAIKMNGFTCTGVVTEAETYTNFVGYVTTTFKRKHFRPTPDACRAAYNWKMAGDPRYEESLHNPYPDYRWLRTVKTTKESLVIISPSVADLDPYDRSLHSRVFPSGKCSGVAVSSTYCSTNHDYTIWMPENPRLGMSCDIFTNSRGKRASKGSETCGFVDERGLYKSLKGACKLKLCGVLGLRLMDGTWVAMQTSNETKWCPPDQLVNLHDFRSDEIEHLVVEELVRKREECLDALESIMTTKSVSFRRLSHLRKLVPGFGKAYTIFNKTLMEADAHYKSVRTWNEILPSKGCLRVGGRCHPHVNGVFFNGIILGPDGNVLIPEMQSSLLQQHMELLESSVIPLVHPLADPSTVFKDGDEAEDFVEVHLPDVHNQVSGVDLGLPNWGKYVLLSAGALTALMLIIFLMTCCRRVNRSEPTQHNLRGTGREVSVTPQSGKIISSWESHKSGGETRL
His-tagged RABV G ectodomain derived from the ERA strain (aa 41-450) (P03524, residues 41-450): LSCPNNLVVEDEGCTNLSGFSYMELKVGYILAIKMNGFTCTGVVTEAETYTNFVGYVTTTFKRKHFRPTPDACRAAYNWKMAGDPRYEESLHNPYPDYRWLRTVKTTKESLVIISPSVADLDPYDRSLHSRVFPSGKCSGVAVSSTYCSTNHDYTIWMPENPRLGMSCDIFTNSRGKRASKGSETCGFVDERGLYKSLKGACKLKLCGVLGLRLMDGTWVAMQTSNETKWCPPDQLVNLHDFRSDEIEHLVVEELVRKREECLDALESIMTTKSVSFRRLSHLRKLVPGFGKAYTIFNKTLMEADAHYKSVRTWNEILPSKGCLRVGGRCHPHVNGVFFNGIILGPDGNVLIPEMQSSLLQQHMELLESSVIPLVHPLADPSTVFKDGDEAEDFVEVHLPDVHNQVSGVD
UniProt P37173, residues 188-567: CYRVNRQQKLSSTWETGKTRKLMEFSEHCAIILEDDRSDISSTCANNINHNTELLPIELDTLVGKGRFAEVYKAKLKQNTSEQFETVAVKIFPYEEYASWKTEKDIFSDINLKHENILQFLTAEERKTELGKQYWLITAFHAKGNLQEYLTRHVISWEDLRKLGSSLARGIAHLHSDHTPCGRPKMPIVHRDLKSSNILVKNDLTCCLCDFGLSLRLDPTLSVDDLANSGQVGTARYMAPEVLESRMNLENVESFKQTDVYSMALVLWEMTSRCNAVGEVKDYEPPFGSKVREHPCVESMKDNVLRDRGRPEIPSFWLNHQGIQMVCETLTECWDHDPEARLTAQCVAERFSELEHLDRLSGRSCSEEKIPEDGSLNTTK

Columns and labels:
[1] = biological target: T1, N-terminal GST-tagged soluble ectodomain of NRP2 (aa 17-865) (human) (UniProt O60462); assay: pull-down; both purified
T1 sequence: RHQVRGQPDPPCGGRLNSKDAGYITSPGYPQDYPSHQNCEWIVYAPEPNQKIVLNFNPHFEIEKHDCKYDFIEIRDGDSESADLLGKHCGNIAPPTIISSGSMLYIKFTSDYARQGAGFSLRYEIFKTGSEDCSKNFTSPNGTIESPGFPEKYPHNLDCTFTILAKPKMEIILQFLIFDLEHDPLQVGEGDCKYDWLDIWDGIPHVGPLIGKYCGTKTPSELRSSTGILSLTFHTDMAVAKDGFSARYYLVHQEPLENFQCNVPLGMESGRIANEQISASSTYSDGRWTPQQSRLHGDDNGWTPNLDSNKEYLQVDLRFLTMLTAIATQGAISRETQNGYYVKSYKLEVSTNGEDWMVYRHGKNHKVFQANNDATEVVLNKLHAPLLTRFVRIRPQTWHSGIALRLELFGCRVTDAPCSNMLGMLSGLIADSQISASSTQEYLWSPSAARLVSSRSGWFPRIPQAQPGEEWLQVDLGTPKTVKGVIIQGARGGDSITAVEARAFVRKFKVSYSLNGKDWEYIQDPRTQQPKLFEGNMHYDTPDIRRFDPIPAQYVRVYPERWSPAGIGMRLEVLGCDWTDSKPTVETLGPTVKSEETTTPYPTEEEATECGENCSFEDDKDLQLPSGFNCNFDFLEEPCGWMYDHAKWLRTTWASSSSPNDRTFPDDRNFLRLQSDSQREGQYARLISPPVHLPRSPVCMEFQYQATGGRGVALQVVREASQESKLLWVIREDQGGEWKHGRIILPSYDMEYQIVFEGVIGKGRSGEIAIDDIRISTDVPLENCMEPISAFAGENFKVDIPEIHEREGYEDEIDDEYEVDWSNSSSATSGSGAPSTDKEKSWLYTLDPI

[2] = biological target: T2, cytoplasmic domain of NRP2 (human) (UniProt O60462); assay: co-IP
T2 sequence: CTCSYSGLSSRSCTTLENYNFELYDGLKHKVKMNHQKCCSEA

[3] = biological target: ERA G-Flag derived from HEK293 cells infected with ERA(G/Flag) (rabies virus, strain ERA) (UniProt P03524); assay: co-IP
[4] = biological target: Flag-tagged ERA G (plasmid-transfected) (rabies virus, strain ERA) (UniProt P03524); assay: pull-down; only the binder purified

“His-tagged RABV G ectodomain derived from the ERA strain (aa 41-450) (from UniProt P03524 41-450) (domain or fragment)” was tested, and the binding [1] was “binds”.

“cytoplasmic domain of the human TGFBR2 (from UniProt P37173 188-567) (domain or fragment)” was tested, and the binding [2] was “no binding”.

B1: endogenous NRP2 (receptor, UniProt O60462 21-931)
chain: RGQPDPPCGGRLNSKDAGYITSPGYPQDYPSHQNCEWIVYAPEPNQKIVLNFNPHFEIEKHDCKYDFIEIRDGDSESADLLGKHCGNIAPPTIISSGSMLYIKFTSDYARQGAGFSLRYEIFKTGSEDCSKNFTSPNGTIESPGFPEKYPHNLDCTFTILAKPKMEIILQFLIFDLEHDPLQVGEGDCKYDWLDIWDGIPHVGPLIGKYCGTKTPSELRSSTGILSLTFHTDMAVAKDGFSARYYLVHQEPLENFQCNVPLGMESGRIANEQISASSTYSDGRWTPQQSRLHGDDNGWTPNLDSNKEYLQVDLRFLTMLTAIATQGAISRETQNGYYVKSYKLEVSTNGEDWMVYRHGKNHKVFQANNDATEVVLNKLHAPLLTRFVRIRPQTWHSGIALRLELFGCRVTDAPCSNMLGMLSGLIADSQISASSTQEYLWSPSAARLVSSRSGWFPRIPQAQPGEEWLQVDLGTPKTVKGVIIQGARGGDSITAVEARAFVRKFKVSYSLNGKDWEYIQDPRTQQPKLFEGNMHYDTPDIRRFDPIPAQYVRVYPERWSPAGIGMRLEVLGCDWTDSKPTVETLGPTVKSEETTTPYPTEEEATECGENCSFEDDKDLQLPSGFNCNFDFLEEPCGWMYDHAKWLRTTWASSSSPNDRTFPDDRNFLRLQSDSQREGQYARLISPPVHLPRSPVCMEFQYQATGGRGVALQVVREASQESKLLWVIREDQGGEWKHGRIILPSYDMEYQIVFEGVIGKGRSGEIAIDDIRISTDVPLENCMEPISAFAGENFKVDIPEIHEREGYEDEIDDEYEVDWSNSSSATSGSGAPSTDKEKSWLYTLDPILITIIAMSSLGVLLGATCAGLLLYCTCSYSGLSSRSCTTLENYNFELYDGLKHKVKMNHQKCCSEA
In the case of B1, the binding [3] is reported as “binds”.

B2: recombinant Fc-tagged NRP2 ectodomain (Fc fusion, UniProt O60462 21-864)
chain: RGQPDPPCGGRLNSKDAGYITSPGYPQDYPSHQNCEWIVYAPEPNQKIVLNFNPHFEIEKHDCKYDFIEIRDGDSESADLLGKHCGNIAPPTIISSGSMLYIKFTSDYARQGAGFSLRYEIFKTGSEDCSKNFTSPNGTIESPGFPEKYPHNLDCTFTILAKPKMEIILQFLIFDLEHDPLQVGEGDCKYDWLDIWDGIPHVGPLIGKYCGTKTPSELRSSTGILSLTFHTDMAVAKDGFSARYYLVHQEPLENFQCNVPLGMESGRIANEQISASSTYSDGRWTPQQSRLHGDDNGWTPNLDSNKEYLQVDLRFLTMLTAIATQGAISRETQNGYYVKSYKLEVSTNGEDWMVYRHGKNHKVFQANNDATEVVLNKLHAPLLTRFVRIRPQTWHSGIALRLELFGCRVTDAPCSNMLGMLSGLIADSQISASSTQEYLWSPSAARLVSSRSGWFPRIPQAQPGEEWLQVDLGTPKTVKGVIIQGARGGDSITAVEARAFVRKFKVSYSLNGKDWEYIQDPRTQQPKLFEGNMHYDTPDIRRFDPIPAQYVRVYPERWSPAGIGMRLEVLGCDWTDSKPTVETLGPTVKSEETTTPYPTEEEATECGENCSFEDDKDLQLPSGFNCNFDFLEEPCGWMYDHAKWLRTTWASSSSPNDRTFPDDRNFLRLQSDSQREGQYARLISPPVHLPRSPVCMEFQYQATGGRGVALQVVREASQESKLLWVIREDQGGEWKHGRIILPSYDMEYQIVFEGVIGKGRSGEIAIDDIRISTDVPLENCMEPISAFAGENFKVDIPEIHEREGYEDEIDDEYEVDWSNSSSATSGSGAPSTDKEKSWLYTLDP
B2 was tested, and the binding [4] was “binds”.
